Results: the supplement of paper PMC3334620
Whole data set: some 33,000 sequences, median “E-score (-0.5 to 0.5)” near -0.0014, cut for the highest 2% near 0.25. This is one part of the list.

target: T1, Cad1 (UniProt P24813); assay: PBM E-score (8-mer binding enrichment) (E-score (-0.5 to 0.5)); higher = stronger / more preferred TF binding; settings: protein concentration: 100 nM; construct: GST-full length
T1 sequence: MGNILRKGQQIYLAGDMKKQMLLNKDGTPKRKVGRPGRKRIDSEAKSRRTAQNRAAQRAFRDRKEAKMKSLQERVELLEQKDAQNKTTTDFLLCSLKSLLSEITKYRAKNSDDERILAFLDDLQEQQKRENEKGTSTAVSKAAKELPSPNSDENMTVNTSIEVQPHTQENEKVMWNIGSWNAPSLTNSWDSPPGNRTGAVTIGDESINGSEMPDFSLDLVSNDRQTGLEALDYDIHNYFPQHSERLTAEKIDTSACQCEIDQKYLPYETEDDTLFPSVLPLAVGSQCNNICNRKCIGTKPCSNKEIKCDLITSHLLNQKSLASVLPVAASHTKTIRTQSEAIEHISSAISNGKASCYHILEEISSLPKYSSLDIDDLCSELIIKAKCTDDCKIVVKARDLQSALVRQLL
Method in brief: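 Yeast transcription factors carrying a GST tag, as full-length proteins or DNA-binding domains, were produced by PURExpress in vitro transcription/translation. About 100-200 nM protein was applied to universal all-10-mer Agilent arrays, double-stranded by primer extension on fresh or once-stripped slides. Bound protein was detected with fluorescent anti-GST, and scans were normalised with masliner. The Universal PBM Analysis Suite gave each ungapped eight-base word, pooled with its reverse complement, an E-score, a modified Wilcoxon-Mann-Whitney statistic.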

Sequence	PBM E-score
ACATCCCG	0.147
ATATGTTA	-0.0486
TACCCTGA	-0.00497
CTGACGAC	0.0894
CTTGCAAG	0.199
ATAGCGTA	0.0528
AATGAGGA	-0.131
ACAGCATC	0.0717
ATTAATTG	0.313
ACGTTCCC	-0.0211
CTGGACAG	0.0236
CCAATAGC	-0.184
CACACCTC	0.0119
ATTTTAGG	0.0902
AAACGATA	0.128
ATGGGAAG	-0.266
AGAATCTA	-0.158
AACTTGTG	0.204
CGTCCAAA	0.18
ACAATGAA	0.186
GGCTTGAC	0.0803
CCCCCCAG	-0.475
CGCTGTGA	-0.0225
AGCCGGTA	-0.00366
ATTGGTCG	0.0539

Sequence	PBM E-score
GGGACAGA	0.0758
GATTACAA	0.294
CAAGACAC	0.157
CCGGCGCA	0.0634
CGTACTCA	-0.00506
CGCGACGC	0.0887
TCAAGCGA	-0.113
CGAAACTA	0.188
GGTCATGA	0.012
CAGGTGAC	-0.0103
CGGTCCTC	-0.175
CTCATAAA	0.117
ATACCTGA	0.0917
CCTAGACA	-0.213
CGATTTGC	-0.00647
ATCTAGAG	-0.138
AGGCCCCG	-0.329
ATCTATGA	0.0449
AGTGCAAT	0.0198
CCTCGCGC	0.0362
ACCTCATA	0.0477
AGAGCTCA	-0.0162
CTCGTGTA	-0.0344
GGAGGTAA	0.0007
GCGATCGC	0.241

Sequence	PBM E-score
ATGTGTAG	0.00894
GATCAGTA	0.135
AATTTTGA	0.173
CCAAGGAA	-0.227
AGACTTTG	0.00736
AGGGGGGG	-0.429
ACTGCTAG	-0.218
CCCGTCGA	-0.116
GATAAAAA	0.139
ACTATGGA	-0.179
AAAGTGTC	0.0307
CCAAGTAG	-0.189
CCTGGTCG	-0.0156
CGAGATTC	0.1
CGTCCCTA	-0.123
CTGGCTGC	-0.0751
CATGATAC	0.214
ATTTTTTC	0.164
ATATACTG	0.2
AGGCAAGC	0.0192
CGAATGAA	-0.0631
CTTTTGCC	-0.0265
GGACAGCA	0.0394
ATTTCCTG	0.233
GAGACCCC	-0.191

Sequence	PBM E-score
CCCCAAGG	-0.307
CTGCTTCA	-0.144
CAAAATTA	0.187
AAATCCAC	0.0208
GTTGCACA	0.085
CCAACTGA	-0.138
CGTCATAA	0.0866
AAACATGT	0.00798
GTACGATA	-0.154
AACGTTTA	0.0236
GCCACTCC	-0.203
ATGAGAGG	-0.196
ATTCACAG	-0.0301
ACGAAGAA	0.1
AGCCCGTA	-0.244
AGAGCTTG	-0.0589
CCCGTCGC	0.00364
AAACACCC	0.168
ACGGAATA	0.198
ACGCCGGA	-0.0391
AAGACGGC	0.0515
GAGTGCAA	0.159
GAATCTAC	-0.0606
ACCGTTCT	-0.139
CTTAGTTC	-0.057

Sequence	PBM E-score
CGCAATGC	-0.0287
ACCACAGT	0.24
ATGTTATG	0.229
TCAAAGGA	-0.105
CGCAGTGA	0.0792
CAGGACCC	-0.182
GTAGATAC	0.0201
CACCACTA	0.106
CCAGGACG	0.00417
GCAGGTCC	0.0536
CCACGAAC	0.127
ACATGACG	-0.0713
ATTGTAAC	0.162
AAGTTACG	0.0736
GCAGAAAC	0.208
AGATCGCG	0.113
GCTAGATA	0.14
GACACGCA	0.117
ACTAAAAG	-0.0602
CTAAGAGA	-0.0535
GTATGGTA	0.0453
TATAGTCA	0.165
CCAGACTC	-0.091
AAGCTGAG	0.064
GAGAGCAC	-0.186

Sequence	PBM E-score
GACAGTAC	0.116
CGAGAACC	0.0726
CCCCTAGG	-0.188
CGAGATAA	0.227
ATAGGTGC	-0.0209
TCGTAGAA	-0.121
CATTACAG	0.0228
AGGCATAG	-0.0101
CCCCGGCA	-0.278
AGCACCTA	0.00318
CATGACGG	-0.0626
GGGGTGTA	-0.142
CGCCATCA	-0.0887
CGGGTTAA	0.00237
AAAAGGGG	-0.378
GGAAATAA	0.184
ATCTTCGC	0.223
ATACAGTC	-0.167
ACTGTATC	-0.17
AACGCACC	-0.0282
ATGGAATG	-0.0835
TATCCAGA	-0.0239
CCGGGCCG	-0.224
CACCTTAC	-0.0464
AGGCTCTG	-0.151

Single values from above:
Under PBM E-score, CCCCGGCA is listed with -0.278
Under PBM E-score, CGAGATAA is listed with 0.227
Under PBM E-score, GACAGTAC is listed with 0.116
Under PBM E-score, CCCCTAGG is listed with -0.188
Under PBM E-score, ATGGAATG is listed with -0.0835
Under PBM E-score, GGAAATAA is listed with 0.184
Under PBM E-score, CATTACAG is listed with 0.0228

(listing goes on)

Sequence	PBM E-score
TAGAAGGA	-0.272
AACAGAAC	0.0478
TCAACTGA	-0.0367
AAATGGTG	0.121
AGGATAGC	0.0152
ACCGTCTG	-0.277
ACACATGA	0.0839
ATTGATTC	0.12
ATAGCGTG	0.00349
AATGCCAT	0.0555
AACCGGTT	0.171
TCCGCCGA	0.0492
AGAATTAA	-0.0362
AAGCAGCC	-0.15
GGAAACGA	-0.0178
GCAGGTCA	-0.154
CAGGTCAG	-0.0942
ACACAGAA	0.136
AACCGGGT	-0.0963
AAGAACCT	-0.0301
CCCGAGCG	-0.0673
ACGGCAAC	0.0739
GATTATGC	0.0629
GATATAAA	0.0282
ACCCTTGC	0.011

Four entries drawn at random from those above:
Sequence	PBM E-score
GATATAAA	0.0282
AAATGGTG	0.121
ATTGATTC	0.12
TCCGCCGA	0.0492

(continued)

Sequence	PBM E-score
ACACCACA	0.123
AGGCTTTC	-0.0233
ACAACTTG	0.0391
CGTTGAGA	0.0319
CCTAATGA	-0.0824
ACTATTGG	0.025
CTATGTCA	0.0433
AGAGTGAC	-0.21
GTAATTAA	0.218
GGTATCTA	0.0847
CTAACGTA	0.0589
ACGCTCTC	-0.059
TCATATGA	0.321
AAATAGGT	0.00789
ACCTGAAG	-0.0272
GCGGACGA	0.0719
AGCGCGTA	0.284
AGTAAACT	0.105
AATGTTCT	0.00438
AGAGCATG	-0.238
ATCCCGAA	0.13
TAAATTGA	0.0565
TGCATACA	0.0433
CGGTACTA	-0.146
GTAGTCTA	0.0399

Sequence	PBM E-score
CTACTAAG	0.0237
CCGCAACC	-0.00848
AGAGGGAA	-0.245
AATCGTTG	0.051
CGGCAGAG	-0.222
CACTGAGA	-0.0901
AAATGAGA	-0.00083
ACACATTC	0.0444
AAGTCATG	0.0989
CTCTAAAC	0.0573
GCGAGCAA	0.0779
CTGGCCAG	-0.159
GGATGATA	0.0541
AACTCTAA	0.0616
TCACCAAA	0.00021
CTTTTAGC	-0.0466
CGTTGAAA	0.0198
ACGAGATG	-0.0532
GCGTAAAA	0.117
ATGCGATG	-0.0935
GCTCTCTA	-0.177
CATTAGCC	-0.223
AGCCGACC	-0.252
CCACTGAA	0.0378
CGAAAACA	0.0957

Sequence	PBM E-score
CAGGCTAA	-0.266
GTTACCTA	0.0949
AATTTCCC	0.0593
ATCCCCTA	-0.225
AGACCGGA	-0.062
AACCGGTC	0.0794
CTTGAAAA	0.0878
ATTTCCGC	0.123
CGAGAGCA	-0.0688
AGATCCGA	-0.0446
CGCGCCCG	-0.0881
ACGCTCAA	0.00381
AGCACAAG	-0.238
CTGCCACA	-0.114
CGCAAATC	0.0719
AAGCCTGT	-0.0352
CGACTGTC	-0.0734
CGCCGCAC	-0.15
TGCGACAA	0.0212
GAAGAAGC	-0.125
AGGGGTTG	-0.184
ATGGTACA	-5e-05
ACCCGAAC	-0.00196
GCTACTAA	0.0213
ATAGCATA	0.153

Sequence	PBM E-score
GGAGCCAA	-0.187
GCCGGGGA	-0.24
AACGCGGA	0.0805
CGCCCCCA	-0.397
ATTAGGGG	-0.0485
GATTATCC	0.167
CCACGGGA	-0.115
CACCCACA	0.023
AGGTACAC	-0.18
TAGACCCA	-0.0672
CTCTAGCA	-0.263
CGGCCGTA	0.0738
AATCTTGG	0.0234
ACTGTAGC	-0.136
AAAAAAAA	0.214
AGGAAGGG	-0.288
TCCTCCCA	-0.144
CAGTGAGC	-0.0579
CCGCCAGG	-0.122
GGAATCCA	-0.0693
ACGATTTA	0.185
ACGTATGA	0.144
GGTAACGA	0.0225
CGTTCCCC	-0.0338
TGAATGCA	0.185

Sequence	PBM E-score
CTACGGCC	-0.0892
CGGGGCAC	-0.19
CCGGAATC	0.0358
ACGAGACT	-0.108
AAGGAGAT	-0.12
CTAGCAAA	0.021
AAGCCACT	-0.118
ACCCCTCC	-0.109
AAGCAGAA	0.121
CCTAGTGC	-0.0393
AATTGGGC	0.141
ACCCTACA	-0.118
CCGCAGGC	0.0726
CATTCGAC	0.0659
AACGTCTG	0.152
AGACAGTA	-0.0503
AGGGGTAG	-0.238
GATTTTCA	0.0863
GAAAGCTA	-0.158
AATCCTAA	0.0253
TCCACAAA	0.18
ACTCAACT	0.115
AATATCAT	0.156
ATTCTTAG	-0.0704
ACAAACTA	0.0519

Sequence	PBM E-score
GGCATCTA	-0.0444
GGACGTCA	-0.159
AATTCTCG	0.171
CCCCCGTC	-0.382
ACACCCTG	-0.133
GGCATGAA	-0.00429
GATTAACC	0.02
AATGCAAA	0.123
CCGCGTCC	0.0699
AATGTAAT	0.324
AGAACGCC	-0.203
TCTGGCAA	-0.0126
AGTTCTCA	0.0966
TATACCAA	0.0311
GTATTGAA	0.173
CGGCGAAG	-0.0239
AAAAAATA	0.0934
AGGTTATG	-0.0582
CGCGCGTA	0.152
AACAAATC	0.151
TGTCTCAA	0.00027
GTCTACCA	-0.0522
GCTATCAA	0.24
GAAGCTAA	-0.073
AGCTCGAT	0.189

Sequence	PBM E-score
GATCTGGA	-0.0625
ACAGTATA	0.0158
GCTACTCC	-0.0816
CTGTAAAA	0.0542
ATGGTCTC	0.102
ATCGAGCA	0.0731
GGAGCCAC	-0.192
ACTATTAT	0.063
ACTGGTTC	0.181
CCGCTGCG	-0.0651
CGCAGGCA	-0.0132
ATACGTAA	0.2
CCAACCAG	-0.209
CAAATGGG	0.0861
CACGCCGA	-0.0716
GGGCACCA	-0.17
CGGTCGCA	-0.081
GTTCCACA	-0.098
CCGACACG	-0.0839
